Measurements from paper PMC10108010, “Fluorogenic Granzyme A Substrates Enable Real‐Time Imaging of Adaptive Immune Cell Activity” (Angewandte Chemie (International Ed. in English), 2023).

The chains behind the UniProt entries cited, without tags or fusion partners. Residues count along the entry.
UniProt P12544, 29-262 limits assumed: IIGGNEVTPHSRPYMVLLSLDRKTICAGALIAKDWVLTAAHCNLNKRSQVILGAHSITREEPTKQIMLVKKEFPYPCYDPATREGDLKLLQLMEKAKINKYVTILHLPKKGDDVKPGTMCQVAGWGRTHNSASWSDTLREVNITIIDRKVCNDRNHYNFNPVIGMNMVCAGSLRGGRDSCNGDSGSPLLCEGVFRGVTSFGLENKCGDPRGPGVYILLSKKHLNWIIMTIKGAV

Columns and labels:
[1] = test system: active GzmA secreted by NK-92 cells; experiment: Detection of active GzmA in supernatants of stimulated NK-92 cells; assay type: cell-based, human; conditions: NK-92 stimulated with PMA and ionomycin; supernatant + compound 9 for 1 h; 725 nm, n=3
Source text: Encouraged by the high reactivity of compound 9, we evaluated its potential application to detect active GzmA secreted by immune cells. NK cell‐based therapies are regarded as potential anticancer treatments due to their ability to secrete granzymes to the extracellular space and cause cytotoxicity in cancer cells.[24] […] To test the utility of compound 9 to measure active GzmA in cell supernatants, we performed degranulation assays in human NK‐92 cells (e.g., a patient‐derived cell line that expresses higher levels of GzmA than healthy NK cells)[25] and also tested GzmA‐negative cells (e.g., HaCaT keratinocytes, Figure S8). NK‐92 cells were stimulated with […] and ionomycin (Figure 5).[26] Cell supernatants were collected and incubated with compound 9 for 1 h, followed by spectroscopic measurements. […] Previous reports indicate that granzyme activity can be detected inside NK‐92 cells[[11b]] and that granzymes can be found within activated immune cells due to intracellular granular leakage,[27] even though granzyme activity is known to be reduced in acidic granules. To study this observation, we performed Z‐stack live‐cell confocal microscopy in NK‐92 cells after incubation with compound 9.
(§1) 5.0) prior to the enzyme assays.
(§2) All the tubes were incubated
(§3) NK- 92 cell inhibition and imaging. […]
(§4) Microsystems) and qualitatively analysed using Fiji.

[2] = biological target: T1, hGzmA (Homo sapiens, UniProt P12544); experiment: HPLC-MS analysis of reaction products of compound 9 with hGzmA; conditions: compound 9 20 µM, hGzmA 20 nM, Tris buffer (pH 8), 37 °C, 90 min; traces at 650 nm
Protocol: Figure S2. HPLC-MS traces of compound 9 before and after reaction with
hGzmA. Compound 9 (20 µM) was incubated with hGzmA (20 nM) in Tris buffer (pH
8) at 37°C for 90 min. HPLC traces were monitored at 650 nm before and after the
reaction. m/z (calc. for compound 9): 971.5, m/z (calc. for hemicyanine): 384.2.
(1 picture or pasted object on this page, not shown here)

[3] = test system: NK-92 cells; experiment: Live-cell confocal microscopy of NK-92 cells; assay type: cell-based, human; conditions: compound 9 5 μM, 1 h; Z-stack confocal, 3 experiments
Protocol: Figure S9. Brightfield and fluorescence confocal microscopy merged images of live NK-92 cells upon incubation with compound 9. Representative microscopy images from 3 independent experiments of live NK-92 cells upon incubation with […]
dichloroisocoumarin (5 µM) was used as a GzmA inhibitor for 2 h prior to labeling.
as §1, §2, §3, §4

[4] = test system: active hGzmA compared to pro-hGzmA, GzmB, GzmK, caspases, HNE, MMPs, cath B and cath L; experiment: Protease selectivity screen of compound 9; conditions: compound 9 20 μM, proteases 20 nM, 37 °C, 60 min; fluorescence fold increase, n=3
[5] = biological target: T1, hGzmA; experiment: Fluorogenic response to active recombinant hGzmA (time-lapse emission, spectra, fold increase)
Protocol: (§5) Figure 4 In vitro characterization of compound 9 in response to hGzmA. a) Time‐lapse fluorescence emission (725 nm) of compound 9 (20 μM) in the absence (black circles) or presence (red circles) of hGzmA (20 nM) in Tris buffer (pH 8) at 37 °C. Data as means±SD (n=3). Inset) Kinetic constants of compound 9 after reaction with hGzmA calculated using the Michaelis–Menten equation. Data presented as means±SD (n=3). b) Fluorescence spectra of compound 9 (20 μM) after incubation with hGzmA (20 nM, red) and in the absence (black) or presence of 3,4‐dichloroisocoumarin (100 μM, grey) in Tris buffer (pH 8). Representative plots from 3 independent experiments. c) Fluorescence fold increase of compound 9 (20 μM) after incubation with different proteases (all at 20 nM) at 37 °C for 60 min. Data presented as means±SD (n=3) and p values obtained from one‐way ANOVA (**** for p<0.0001). Inset) Chemical structure of the commercial Z‐FR‐AMC. d) Fluorescence enhancement of compound 9 and Z‐FR‐AMC (both at 20 μM) after incubation with hGzmA (20 nM) in Tris buffer (pH 8) at 37 °C for 60 min. Data presented as means±SD (n=3). TEXT PRINTED IN THE PICTURE: (a) 9 + hGzmA: Km: 6.9±1.0×10^-6 M; kcat: 0.26±0.04 s^-1; kcat/Km: 3.7±0.2×10^4 M^-1s^-1 […]
(§6) nebuliser gas. Data acquisition was performed with MassLynx software. 1H-NMR spectra were recorded using Bruker Avance III spectrometer operated at 500 MHz.
(§7) 13C-NMR spectra were recorded using Bruker Avance operated at 126 MHz. Chemical shifts were reported in ppm on the δ scale relative to a residual solvent (CDCl 3: δ = […]
(§8) 13C-NMR). Multiplicities are referred by the following abbreviations: s = singlet, d = doublet, t = triplet, dd = doublet doublets, ddd = double double doublet, dt = double triplet, q = quartet and m = multiplet.
(§9) Photophysical calculations. Spectroscopic data were recorded on a Synergy HT spectrophotometer (Biotek). Compounds were dissolved at the indicated concentrations and spectra were recorded at 37 °C.
In vitro characterization assays. Enzymatic assays were run in a 384-well format in PCR opaque microplates (Thermo Scientific). All experiments were performed at least in triplicate. hGzmA assays were performed in Tris buffer (0.05 M TRIS pH 8.0 containing 0.15 M NaCl and 0.01% Triton X-100). mGzmA assays were performed in Tris buffer (0.1 M TRIS, pH 8.5). hGzmB assays were performed in Tris buffer (0.05 M Tris-HCl, 0.1 M NaCl, pH 7.4). Human neutrophil elastase assays were performed in Tris buffer (0.05 M Tris, 1 M NaCl, 0.01% m/v Triton X-100, pH 8). hGzmK assays were performed in Tris buffer (0.05 M Tris, 1 M NaCl, 0.05% m/v Triton X-100, pH 7.5). […]
(§10) assays were performed in MES buffer (25 mM MES, 5 mM DTT, pH 6.0). […] Proteolytic activity was determined by calculating the fold change in fluorescence signal over background signal. […]

[6] = biological target: T1, hGzmA; experiment: Michaelis-Menten kinetics with hGzmA
Protocol: as §5
Next, we determined the kinetic properties of compound 9 as a substrate for hGzmA using Michaelis–Menten's equation (Figures 4 and S4). In these experiments, we measured the maximum rate (v max), as well as the Michaelis (K m) and the catalytic rate (k cat) constants. […] To the best of our knowledge, these are the highest k cat/K m values reported to date for NIR GzmA substrates and outperform previously reported probes.[17] This improvement in reactivity can be partially attributed to the enhanced accessibility of the scissile bond in compound 9 due to the addition of the 4‐aminobenzyl alcohol spacer. […] Finally, we also compared the performance of compound 9 to the commercial substrate Z‐FR‐AMC (Figure 4).
Figure S3. Limit of detection of compound 9 for hGzmA. The hGzmA […]
assays were performed with com pound 9 (20 µM) in Tris buffer (pH 8) at 37 °C. Data […]
presented as means±SD (n=3). LoD = 472 pM.
Figure S4. Kinetics of the compound 9 upon reaction with hGzmA. a) […]
Representative (from 3 independent experiments) time- lapse fluorescence emission […]
derived from the reaction of hGzmA (20 nM) and compound 9 at different […]
concentrations [2.5 μM, 5 μM, 7.5 μM, 10 μM, 15 μM, 20 μM]. b) Initial rates (V0) were […]
plotted against different concentrations of compound 9 (2.5, 5, 7.5, 10, 15 and 20 μM) […]
when incubated with hGzmA (20 nM) in Tris buffer (pH 8) at 37°C . […]
as §10

[7] = biological target: T1, hGzmA; experiment: Relative fluorescence quantum yield before/after incubation with hGzmA; conditions: standard IR-125, Tris buffer (pH 8)
Protocol: Figure 3 Synthetic scheme for the preparation of fluorogenic substrates for hGzmA. Relative fluorescence quantum yields (standard: IR‐125) of the compound 9 before and after incubation with hGzmA (20 nM) in Tris buffer (pH 8). Pictograms of solutions of the compound 9 (50 μM) in the absence (left) or presence (right) of hGzmA under 650 nm excitation. TEXT PRINTED IN THE PICTURE: 9: no hGzmA QY < 2%; + hGzmA QY = 30% […]
as §6, §7, §8, §9
In vitro characterization assays. Enzymatic assays were run in a 384-well format in PCR opaque microplates (Thermo Scientific). […]

[8] = Emission wavelength / spectral properties; assay type: physicochemical; conditions: comparison of compound 9 and Z-FR-AMC
[9] = hGzmA 20 nM, compound 9 2.5-20 μM, Tris buffer (pH 8), 37 °C, means±SD, n=3

CC[C@H](C)[C@H](NC(C)=O)C(=O)NCC(=O)N[C@@H](CC(N)=O)C(=O)N[C@@H](CCCNC(=N)N)C(=O)Nc1ccc(COc2ccc3c(c2)OC2=C(/C=C/C4=[N+](C)c5ccccc5C4(C)C)CCCC2=C3)cc1
fluorescence of cell supernatants (in words) [1]: significantly brighter fluorescence in supernatants from stimulated NK‐92 cells when compared to non‐stimulated cells
cleavage site (HPLC-MS) [2]: enzymatic cleavage happens after the Arg residue
intracellular fluorescence (in words) [3]: bright intracellular fluorescence in NK‐92 cells
selectivity over other proteases (in words) [4]: reacting preferentially with active hGzmA compared to other proteases
fluorescence increase relative to Z-FR-AMC ([5]; both at 20 μM, hGzmA 20 nM, Tris buffer (pH 8), 37 °C, 60 min, n=3): 18 fold
response time and signal stability (in words) ([5]; compound 9 20 μM, hGzmA 20 nM, Tris buffer (pH 8), 37 °C): response within minutes and a stable fluorescence readout for several hours
fluorescence increase after enzymatic reaction ([5]; compound 9 20 μM, hGzmA 20 nM, Tris buffer (pH 8), 37 °C, 725 nm, n=3): around 20 fold
emission after enzymatic reaction ([5]; compound 9 with active recombinant hGzmA, NIR emission): > 700 nm
kcat/Km ([6]; hGzmA 20 nM, Tris buffer (pH 8), 37 °C, means±SD, n=3 (figure)): 3.7±0.2×10^4 M^-1s^-1
Km [6, 9]: 6.9 µM
kcat [6, 9]: 0.26 ± 0.04 s⁻¹
kcat/Km ([6]; hGzmA, Michaelis-Menten, rounded): around 37 000 M^−1 s^−1
relative fluorescence quantum yield, + hGzmA ([7]; after incubation with hGzmA (20 nM)): 30%
relative fluorescence quantum yield, no hGzmA ([7]; before incubation with hGzmA): < 2%
emission wavelength [8]: ≈ 720 nm

Structures were worked out from names or drawings and are uncertain.
